Laboratory results published in the supplement of paper PMC10382679.
Single values of this set are uncertain.

B1: Rpb7; numbered along this chain (parent)
chain: MFFIKDLSLNITLHPSFFGPRMKQYLKTKLLEEVEGSCTGKFGYILCVLDYDNIDIQRGRILPTDGSAEFNVKYRAVVFKPFKGEVVDGTVVSCSQHGFEVQVGPMKVFVTKHLMPQDLTFNAGSNPPSYQSSEDVITIKSRIRVKIEGCISQVSSIHAIGSIKEDYLGAI

What was measured:
[1] = variants of: B1; assay: log2 fold change of mutant abundance, UV-irradiated vs unirradiated; higher = more UV resistant (enriched after UV); conditions: with Saccharomyces cerevisiae rad7Δ rad26Δ; UV dose (J/m2): 10; genetic background: rad7Δ rad26Δ rpb7Δ + plasmid RPB7 library; outgrowth: 10 cell divisions
Experimental: (§1)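 Error-prone PCR random mutant library of yeast RPB7 (codons 2-171) on a LEU2 plasmid, shuffled into rad7Δ rad26Δ S. cerevisiae (BJ5465 background) with genomic RPB7 deleted. Cells were irradiated with 10 J/m2 UV (254 nm) or left unirradiated and grown for 10 divisions. Plasmid RPB7 amplicons were Illumina-sequenced and per-codon amino-acid counts were compared UV vs no UV with NOISeq (3 repeats, ARSyNseq batch correction). Positive log2FC means enrichment after UV, i.e. UV resistance / derepressed TCR.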

[2] = variants of: B1; assay: NOISeq theta enrichment statistic, UV-irradiated vs unirradiated (dimensionless); higher = more UV resistant (enriched after UV); conditions: with Saccharomyces cerevisiae rad7Δ rad26Δ; UV dose (J/m2): 10; genetic background: rad7Δ rad26Δ rpb7Δ + plasmid RPB7 library; outgrowth: 10 cell divisions
Experimental: as §1

Variant	log2 fold change of mutant abundance [1]	NOISeq theta enrichment statistic [2]
MFFIKDLSLNITLHPSFFGPRMKQYLITKLLEEVEGSCTGKFGYILCVLDYDNIDIQRGRILPTDGSAEFNVKYRAVVFKPFKGEVVDGTVVSCSQHGFEVQVGPMKVFVTKHLMPQDLTFNAGSNPPSYQSSEDVITIKSRIRVKIEGCISQVSSIHAIGSIKEDYLGAI [K27I]	0.123	0.074
MFFIKDLSLNITLHPSFFGPRMKQYLLTKLLEEVEGSCTGKFGYILCVLDYDNIDIQRGRILPTDGSAEFNVKYRAVVFKPFKGEVVDGTVVSCSQHGFEVQVGPMKVFVTKHLMPQDLTFNAGSNPPSYQSSEDVITIKSRIRVKIEGCISQVSSIHAIGSIKEDYLGAI [K27L]	0.466	0.229
MFFIKDLSLNITLHPSFFGPRMKQYLMTKLLEEVEGSCTGKFGYILCVLDYDNIDIQRGRILPTDGSAEFNVKYRAVVFKPFKGEVVDGTVVSCSQHGFEVQVGPMKVFVTKHLMPQDLTFNAGSNPPSYQSSEDVITIKSRIRVKIEGCISQVSSIHAIGSIKEDYLGAI [K27M]	0.0503	0.217
MFFIKDLSLNITLHPSFFGPRMKQYLNTKLLEEVEGSCTGKFGYILCVLDYDNIDIQRGRILPTDGSAEFNVKYRAVVFKPFKGEVVDGTVVSCSQHGFEVQVGPMKVFVTKHLMPQDLTFNAGSNPPSYQSSEDVITIKSRIRVKIEGCISQVSSIHAIGSIKEDYLGAI [K27N]	0.0611	0.156
MFFIKDLSLNITLHPSFFGPRMKQYLPTKLLEEVEGSCTGKFGYILCVLDYDNIDIQRGRILPTDGSAEFNVKYRAVVFKPFKGEVVDGTVVSCSQHGFEVQVGPMKVFVTKHLMPQDLTFNAGSNPPSYQSSEDVITIKSRIRVKIEGCISQVSSIHAIGSIKEDYLGAI [K27P]	0.167	0.126
MFFIKDLSLNITLHPSFFGPRMKQYLQTKLLEEVEGSCTGKFGYILCVLDYDNIDIQRGRILPTDGSAEFNVKYRAVVFKPFKGEVVDGTVVSCSQHGFEVQVGPMKVFVTKHLMPQDLTFNAGSNPPSYQSSEDVITIKSRIRVKIEGCISQVSSIHAIGSIKEDYLGAI [K27Q]	0.221	0.33
MFFIKDLSLNITLHPSFFGPRMKQYLRTKLLEEVEGSCTGKFGYILCVLDYDNIDIQRGRILPTDGSAEFNVKYRAVVFKPFKGEVVDGTVVSCSQHGFEVQVGPMKVFVTKHLMPQDLTFNAGSNPPSYQSSEDVITIKSRIRVKIEGCISQVSSIHAIGSIKEDYLGAI [K27R]	0.0657	0.196
MFFIKDLSLNITLHPSFFGPRMKQYLSTKLLEEVEGSCTGKFGYILCVLDYDNIDIQRGRILPTDGSAEFNVKYRAVVFKPFKGEVVDGTVVSCSQHGFEVQVGPMKVFVTKHLMPQDLTFNAGSNPPSYQSSEDVITIKSRIRVKIEGCISQVSSIHAIGSIKEDYLGAI [K27S]	0.158	0.0888
MFFIKDLSLNITLHPSFFGPRMKQYLTTKLLEEVEGSCTGKFGYILCVLDYDNIDIQRGRILPTDGSAEFNVKYRAVVFKPFKGEVVDGTVVSCSQHGFEVQVGPMKVFVTKHLMPQDLTFNAGSNPPSYQSSEDVITIKSRIRVKIEGCISQVSSIHAIGSIKEDYLGAI [K27T]	0.042	0.0851
MFFIKDLSLNITLHPSFFGPRMKQYLVTKLLEEVEGSCTGKFGYILCVLDYDNIDIQRGRILPTDGSAEFNVKYRAVVFKPFKGEVVDGTVVSCSQHGFEVQVGPMKVFVTKHLMPQDLTFNAGSNPPSYQSSEDVITIKSRIRVKIEGCISQVSSIHAIGSIKEDYLGAI [K27V]	0.0675	0.0512
MFFIKDLSLNITLHPSFFGPRMKQYLWTKLLEEVEGSCTGKFGYILCVLDYDNIDIQRGRILPTDGSAEFNVKYRAVVFKPFKGEVVDGTVVSCSQHGFEVQVGPMKVFVTKHLMPQDLTFNAGSNPPSYQSSEDVITIKSRIRVKIEGCISQVSSIHAIGSIKEDYLGAI [K27W]	0.222	0.155
MFFIKDLSLNITLHPSFFGPRMKQYLYTKLLEEVEGSCTGKFGYILCVLDYDNIDIQRGRILPTDGSAEFNVKYRAVVFKPFKGEVVDGTVVSCSQHGFEVQVGPMKVFVTKHLMPQDLTFNAGSNPPSYQSSEDVITIKSRIRVKIEGCISQVSSIHAIGSIKEDYLGAI [K27Y]	1.39	0.607
MFFIKDLSLNITLHPSFFGPRMKQYLKAKLLEEVEGSCTGKFGYILCVLDYDNIDIQRGRILPTDGSAEFNVKYRAVVFKPFKGEVVDGTVVSCSQHGFEVQVGPMKVFVTKHLMPQDLTFNAGSNPPSYQSSEDVITIKSRIRVKIEGCISQVSSIHAIGSIKEDYLGAI [T28A]	-0.0495	-0.192
MFFIKDLSLNITLHPSFFGPRMKQYLKDKLLEEVEGSCTGKFGYILCVLDYDNIDIQRGRILPTDGSAEFNVKYRAVVFKPFKGEVVDGTVVSCSQHGFEVQVGPMKVFVTKHLMPQDLTFNAGSNPPSYQSSEDVITIKSRIRVKIEGCISQVSSIHAIGSIKEDYLGAI [T28D]	-0.0126	-0.00599
MFFIKDLSLNITLHPSFFGPRMKQYLKIKLLEEVEGSCTGKFGYILCVLDYDNIDIQRGRILPTDGSAEFNVKYRAVVFKPFKGEVVDGTVVSCSQHGFEVQVGPMKVFVTKHLMPQDLTFNAGSNPPSYQSSEDVITIKSRIRVKIEGCISQVSSIHAIGSIKEDYLGAI [T28I]	-0.0097	-0.0269
MFFIKDLSLNITLHPSFFGPRMKQYLKKKLLEEVEGSCTGKFGYILCVLDYDNIDIQRGRILPTDGSAEFNVKYRAVVFKPFKGEVVDGTVVSCSQHGFEVQVGPMKVFVTKHLMPQDLTFNAGSNPPSYQSSEDVITIKSRIRVKIEGCISQVSSIHAIGSIKEDYLGAI [T28K]	0.0712	0.143
MFFIKDLSLNITLHPSFFGPRMKQYLKLKLLEEVEGSCTGKFGYILCVLDYDNIDIQRGRILPTDGSAEFNVKYRAVVFKPFKGEVVDGTVVSCSQHGFEVQVGPMKVFVTKHLMPQDLTFNAGSNPPSYQSSEDVITIKSRIRVKIEGCISQVSSIHAIGSIKEDYLGAI [T28L]	-0.43	-0.314

Full records, quoted from the list. Values in the order: log2 fold change of mutant abundance [1]	NOISeq theta enrichment statistic [2]
MFFIKDLSLNITLHPSFFGPRMKQYLTTKLLEEVEGSCTGKFGYILCVLDYDNIDIQRGRILPTDGSAEFNVKYRAVVFKPFKGEVVDGTVVSCSQHGFEVQVGPMKVFVTKHLMPQDLTFNAGSNPPSYQSSEDVITIKSRIRVKIEGCISQVSSIHAIGSIKEDYLGAI [K27T] is entered as 0.042	0.0851
MFFIKDLSLNITLHPSFFGPRMKQYLLTKLLEEVEGSCTGKFGYILCVLDYDNIDIQRGRILPTDGSAEFNVKYRAVVFKPFKGEVVDGTVVSCSQHGFEVQVGPMKVFVTKHLMPQDLTFNAGSNPPSYQSSEDVITIKSRIRVKIEGCISQVSSIHAIGSIKEDYLGAI [K27L] is entered as 0.466	0.229
